This continues a long series; more values of the same kind are listed elsewhere.
Tested on: TC/TEAD transcriptional profile in TC-expressing NIH3T3 cells
Assay: Bulk RNA-Seq, differential gene expression and GSEA (TC ATA v. TC DMSO)
Format: cell-based, murine
Settings: TC ATA v. TC DMSO
Procedure: NIH3T3 and HEK293 cells were obtained from the American Type Tissue Collection (ATCC, Manassas, VA) and cultured in DMEM containing 10% fetal bovine serum and penicillin/streptomycin. A TEAD dual luciferase reporter assay was performed as previously described. Cells were treated with vehicle control or ATA (10 μM) for 48 h before measuring the luciferase activity or processing the samples for RNA extraction. Each experiment was repeated at least 2-3 times. NIH3T3 cells were used. The extracted RNA (RNeasy Mini, Qiagen) from treated cells was either used for qPCR measurements or sent for bulk RNA-Seq. Sequencing runs were performed on an Illumina HiSeq 4000 sequencer (Genewiz). Subsequent bioinformatics analysis was performed in the Galaxy Project platform. Paired end reads were aligned to the murine genome ([…]2 [27]. Raw count files were generated with featureCounts using a corresponding GTF reference. Differential gene expression analysis was performed with DESeq2 [29]. Transcripts were considered to be differentially expressed if the false discovery rate < 0.05 and Log2FC > 2. When performing differential gene expression for GSEA analysis, the Limma package was used (<5 CPM filtering) with t-scores used for rank statistics. GSEA plots and statistics were generated with FGSEA with custom gene sets. Raw sequencing reads and processed files have been deposited in the GEO repository (data will be uploaded upon manuscript acceptance). The Universal Probe Library probes (Roche) and the associated primer sequences for the qPCR targets are listed below: […]

O=C(O)C1=CC(=C(c2ccc(O)c(C(=O)O)c2)c2ccc(O)c(C(=O)O)c2)C=CC1=O [ATA, aurintricarboxylic acid]
Log2 Fold Change (gene Etv5): -0.424
Log2 Fold Change (gene F3): 0.7181
Log2 Fold Change (gene Faim2): 0.686
Log2 Fold Change (gene Fam13a): 0.7432
Log2 Fold Change (gene Fam72a): -0.4503
Log2 Fold Change (gene Fam168a): 0.2462
Log2 Fold Change (gene Fam185a): -0.3602
Log2 Fold Change (gene Fap): 1.127
Log2 Fold Change (gene Fat4): 1.161
Log2 Fold Change (gene Fbxl20): 0.4357
Log2 Fold Change (gene Fcgrt): 0.6784
Log2 Fold Change (gene Fez1): -0.4591
Log2 Fold Change (gene Fgd4): -0.6665
Log2 Fold Change (gene Fgf2): -0.4873
Log2 Fold Change (gene Fgf10): 0.5355
Log2 Fold Change (gene Fhl1): 0.813
Log2 Fold Change (gene Fig4): 0.3382
Log2 Fold Change (gene Filip1l): 0.2972
Log2 Fold Change (gene Fip1l1): -0.1961
Log2 Fold Change (gene Fkbp4): -0.1887
Log2 Fold Change (gene Fkbp14): 0.3983
Log2 Fold Change (gene Flrt2): -0.4337
Log2 Fold Change (gene Flt1): 0.3634
Log2 Fold Change (gene Fmn1): 0.4709
Log2 Fold Change (gene Fmod): 1.646
Log2 Fold Change (gene Fnbp1): 0.3623
Log2 Fold Change (gene Fos): 1.593
Log2 Fold Change (gene Fosl1): -0.3528
Log2 Fold Change (gene Foxc2): -0.4836
Log2 Fold Change (gene Frmd4a): -0.2962
Log2 Fold Change (gene Ftl1): 0.2585
Log2 Fold Change (gene Fubp1): -0.2103
Log2 Fold Change (gene Fuca1): 0.3144
Log2 Fold Change (gene Fxyd1): 0.8951
Log2 Fold Change (gene Fzd1): 0.5325
Log2 Fold Change (gene Fzd5): -0.4461
Log2 Fold Change (gene Gabarap): 0.309
Log2 Fold Change (gene Galk2): 0.3816
Log2 Fold Change (gene Galnt10): 0.2542
Log2 Fold Change (gene Galnt18): 0.3573
Log2 Fold Change (gene Gas6): 0.4148
Log2 Fold Change (gene Gatm): -0.9516
Log2 Fold Change (gene Gclc): 0.2433
Log2 Fold Change (gene Gdnf): -0.3219
Log2 Fold Change (gene Gdpd2): 1.574
Log2 Fold Change (gene Gem): 0.6083
Log2 Fold Change (gene Gemin5): -0.2732
Log2 Fold Change (gene Gfra1): -0.6194
Log2 Fold Change (gene Ghr): 0.4181
Log2 Fold Change (gene Gja1): -0.3185
Log2 Fold Change (gene Gjb3): -0.4357
Log2 Fold Change (gene Gm2383): 1.428
Log2 Fold Change (gene Gm4518): 0.9557
Log2 Fold Change (gene Gm4795): 1.427
Log2 Fold Change (gene Gm4835): 1.084
Log2 Fold Change (gene Gm6043): 1.139
Log2 Fold Change (gene Gm7399): 0.7595
Log2 Fold Change (gene Gm7993): -0.4096
Log2 Fold Change (gene Gm10110): -0.2483
Log2 Fold Change (gene Gm12840): 0.7884
Log2 Fold Change (gene Gm12966): 0.4386
Log2 Fold Change (gene Gm17501): 0.3061
Log2 Fold Change (gene Gm20186): 0.674
Log2 Fold Change (gene Gm28661): 0.4284
Log2 Fold Change (gene Gm42743): 1.449
Log2 Fold Change (gene Gm42979): -0.7369
Log2 Fold Change (gene Gm44777): -0.8489
Log2 Fold Change (gene Gnb4): -0.3878
Log2 Fold Change (gene Gng11): 0.4255
Log2 Fold Change (gene Gpat3): -0.3475
Log2 Fold Change (gene Gpnmb): 0.9926
Log2 Fold Change (gene Gpr176): 0.2333
Log2 Fold Change (gene Gprc5a): -0.2591
Log2 Fold Change (gene Gpx1): -0.446
Log2 Fold Change (gene Grb14): -0.4173
Log2 Fold Change (gene Grn): 0.3053
Log2 Fold Change (gene Gstm2): 0.6705
Log2 Fold Change (gene Gsto2): -0.4535
Log2 Fold Change (gene H1f2): 0.6052
Log2 Fold Change (gene H2-Q4): 0.4936
Log2 Fold Change (gene H2bc4): 0.7374
Log2 Fold Change (gene H4c9): 0.7269
Log2 Fold Change (gene Hacd2): 0.3072
Log2 Fold Change (gene Hba-a1): 1.35
Log2 Fold Change (gene Hdac5): 0.2652
Log2 Fold Change (gene Heatr1): -0.2941
Log2 Fold Change (gene Hfe): 0.6813
Log2 Fold Change (gene Hic1): -0.2341
Log2 Fold Change (gene Hip1): 0.3247
Log2 Fold Change (gene Hk2): -0.3363
Log2 Fold Change (gene Hlf): -0.7573
Log2 Fold Change (gene Hmcn2): 0.8604
Log2 Fold Change (gene Hmga1): -0.5179
Log2 Fold Change (gene Hmga2): -0.4615
Log2 Fold Change (gene Hmgcl): 0.242
Log2 Fold Change (gene Hrc): 0.5233
Log2 Fold Change (gene Hrh2): 1.131
Log2 Fold Change (gene Hspa1b): 0.3565
Log2 Fold Change (gene Hspb1): -0.6806
Log2 Fold Change (gene Hspb6): 0.5505
Log2 Fold Change (gene Htra3): 1.172
Log2 Fold Change (gene Iars): -0.1916
Log2 Fold Change (gene Id2): 0.8422
Log2 Fold Change (gene Id4): 1.169
Log2 Fold Change (gene Idh1): 0.5659
Log2 Fold Change (gene Ifi27): 0.3321
Log2 Fold Change (gene Ifitm3): 0.5415
Log2 Fold Change (gene Ifrd2): -0.3152
Log2 Fold Change (gene Igf1): 0.6117
Log2 Fold Change (gene Igfbp2): -1.024
Log2 Fold Change (gene Igfbp5): -0.6348
Log2 Fold Change (gene Igfbp7): 0.6078
Log2 Fold Change (gene Iglon5): 0.2843
Log2 Fold Change (gene Igsf10): 0.8881
Log2 Fold Change (gene Ikzf2): 0.8994
Log2 Fold Change (gene Il1rap): -0.3094
Log2 Fold Change (gene Il1rl1): -0.4998
Log2 Fold Change (gene Il15ra): -0.4837
Log2 Fold Change (gene Il18): 0.8015
Log2 Fold Change (gene Impact): 0.3705
Log2 Fold Change (gene Impdh2-ps): -0.2275
Log2 Fold Change (gene Inpp5a): 0.2235
Log2 Fold Change (gene Insig1): 0.222
Log2 Fold Change (gene Iqgap3): -0.2957
Log2 Fold Change (gene Irf5): 1.172
Log2 Fold Change (gene Itga8): 0.8354
Log2 Fold Change (gene Itga11): 1.206
Log2 Fold Change (gene Itgb5): 0.3445
Log2 Fold Change (gene Itgb7): -0.4787
Log2 Fold Change (gene Itm2b): 0.3071
Log2 Fold Change (gene Itpr2): 0.4213
Log2 Fold Change (gene Jade1): 0.3235
Log2 Fold Change (gene Jun): -0.2996
Log2 Fold Change (gene Junb): 0.4133
Log2 Fold Change (gene Kank1): 0.4062
Log2 Fold Change (gene Kank3): -0.6814
Log2 Fold Change (gene Kazald1): 0.8401
Log2 Fold Change (gene Kbtbd7): 0.5869
Log2 Fold Change (gene Kcnab3): -0.6117
Log2 Fold Change (gene Kdelr3): 0.2731
Log2 Fold Change (gene Kif2a): -0.1966
Log2 Fold Change (gene Kif6): 0.5733
Log2 Fold Change (gene Kif26b): 0.619
Log2 Fold Change (gene Kirrel3): -0.8006
Log2 Fold Change (gene Klf2): 0.5059
Log2 Fold Change (gene Klf3): 0.2097
Log2 Fold Change (gene Krt13): 0.6224
Log2 Fold Change (gene Krt80): -0.2808
Log2 Fold Change (gene Lamb1): -0.2993
Log2 Fold Change (gene Lamp2): 0.3342
Log2 Fold Change (gene Ldb3): 0.5967
Log2 Fold Change (gene Lgalsl): 0.1915
Log2 Fold Change (gene Lgmn): 0.1929
Log2 Fold Change (gene Lgr6): -1.074
Log2 Fold Change (gene Lima1): 0.3371
Log2 Fold Change (gene Lipe): 0.3942
Log2 Fold Change (gene Lix1l): 0.2896
Log2 Fold Change (gene Lmod1): 0.9334
Log2 Fold Change (gene Lmod3): 0.8146
Log2 Fold Change (gene Lox): 0.2998
Log2 Fold Change (gene Lpar1): 0.276
Log2 Fold Change (gene Lpin1): 0.3626
Log2 Fold Change (gene Lrrc8c): -0.2592
Log2 Fold Change (gene Lrrc17): 0.4583
Log2 Fold Change (gene Lrrc75b): 1.131
Log2 Fold Change (gene Lrrfip1): -0.2832
Log2 Fold Change (gene Lrwd1): -0.204
Log2 Fold Change (gene Lurap1l): 0.3734
Log2 Fold Change (gene Lvrn): 0.5306
Log2 Fold Change (gene Lxn): 0.6784
Log2 Fold Change (gene Ly6c1): 1.036
Log2 Fold Change (gene Lynx1): 0.3893
Log2 Fold Change (gene Lyrm7): 0.9256
Log2 Fold Change (gene Lyz2): 0.7637
Log2 Fold Change (gene Macrod1): 0.3911
Log2 Fold Change (gene Maf): 0.6697
Log2 Fold Change (gene Maff): -0.3326
Log2 Fold Change (gene Mafk): -0.2157
Log2 Fold Change (gene Maged2): 0.3246
Log2 Fold Change (gene Mamdc2): 0.7056
Log2 Fold Change (gene Man1c1): 0.3605
Log2 Fold Change (gene Mapk6): -0.3408
Log2 Fold Change (gene Masp1): 0.5504
Log2 Fold Change (gene Mast4): -0.2941
Log2 Fold Change (gene Mat2b): 0.2814
Log2 Fold Change (gene Matn2): 0.596
Log2 Fold Change (gene Mb): 1.291
Log2 Fold Change (gene Mboat1): -0.4553
Log2 Fold Change (gene Mef2c): 0.4908
Log2 Fold Change (gene Megf9): 0.2583
Log2 Fold Change (gene Met): -0.2733
Log2 Fold Change (gene Mettl27): 0.3928
Log2 Fold Change (gene Mgp): 0.971
Log2 Fold Change (gene Mindy2): 0.4845
Log2 Fold Change (gene Mmp14): 0.4309
Log2 Fold Change (gene Mmp19): 0.7302
Log2 Fold Change (gene Mpp1): 0.2306
Log2 Fold Change (gene Mpz): 1.0955
Log2 Fold Change (gene Mr1): 0.5676
Log2 Fold Change (gene Mrpl38): -0.2105
Log2 Fold Change (gene Ms4a4d): 0.4769
Log2 Fold Change (gene Msln): -0.9365
Log2 Fold Change (gene Msn): -0.1996
Log2 Fold Change (gene Msrb3): 0.2807
Log2 Fold Change (gene Mtcl1): -0.2994
Log2 Fold Change (gene Mthfd1): -0.2489
Log2 Fold Change (gene Mthfd2): -0.2278
Log2 Fold Change (gene Mtss2): 0.3543
Log2 Fold Change (gene Mtus2): 0.9392
Log2 Fold Change (gene Mustn1): 0.7761
Log2 Fold Change (gene Mxd4): 0.8515
Log2 Fold Change (gene Mxra8): 0.5226
Log2 Fold Change (gene Mybbp1a): -0.2644
Log2 Fold Change (gene Myc): -0.2262
Log2 Fold Change (gene Myd88): 0.3237
Log2 Fold Change (gene Myh1): 1.101
Log2 Fold Change (gene Myh2): 1.365
Log2 Fold Change (gene Myh7): 1.309
Log2 Fold Change (gene Myh11): 1.121
Log2 Fold Change (gene Myl2): 1.786
Log2 Fold Change (gene Myl9): 1.182
Log2 Fold Change (gene Mylip): 0.2657
Log2 Fold Change (gene Mylk2): 0.5639
Log2 Fold Change (gene Myo18a): 0.3328

From publication PMC9007350, “Aurintricarboxylic acid is a canonical disruptor of the TAZ-TEAD transcriptional complex” (PLoS ONE, 2022)
